Measured values taken from PubChem BioAssay AID1671190 (National Center for Advancing Translational Sciences (NCATS), 2021).
Several values for one entry are separate records, joined by “and”; a condition that tells them apart may be missing. Equal entries are not always repeated. Out of some 580,000 compounds screened, about 6,100 (1.1%) were called active. Inconclusive means that the source gave no clear call. Such entries were picked first, then a sample of the others. The call rests on the fitted dose curve; in most records, active means well fitted inhibition curve with a large enough effect; inconclusive means small, poorly fitted or top-dose-only effect, or another doubt; inactive means no such curve, though single readings can be large or run the other way. Where the call is inconclusive, the potency comes from a doubtful curve fit.

Sequences of proteins named here, by UniProt entry; tags and fusion partners are left off. A change or cut given only in a name is not applied to a line headed by its entry.
UniProt P18054: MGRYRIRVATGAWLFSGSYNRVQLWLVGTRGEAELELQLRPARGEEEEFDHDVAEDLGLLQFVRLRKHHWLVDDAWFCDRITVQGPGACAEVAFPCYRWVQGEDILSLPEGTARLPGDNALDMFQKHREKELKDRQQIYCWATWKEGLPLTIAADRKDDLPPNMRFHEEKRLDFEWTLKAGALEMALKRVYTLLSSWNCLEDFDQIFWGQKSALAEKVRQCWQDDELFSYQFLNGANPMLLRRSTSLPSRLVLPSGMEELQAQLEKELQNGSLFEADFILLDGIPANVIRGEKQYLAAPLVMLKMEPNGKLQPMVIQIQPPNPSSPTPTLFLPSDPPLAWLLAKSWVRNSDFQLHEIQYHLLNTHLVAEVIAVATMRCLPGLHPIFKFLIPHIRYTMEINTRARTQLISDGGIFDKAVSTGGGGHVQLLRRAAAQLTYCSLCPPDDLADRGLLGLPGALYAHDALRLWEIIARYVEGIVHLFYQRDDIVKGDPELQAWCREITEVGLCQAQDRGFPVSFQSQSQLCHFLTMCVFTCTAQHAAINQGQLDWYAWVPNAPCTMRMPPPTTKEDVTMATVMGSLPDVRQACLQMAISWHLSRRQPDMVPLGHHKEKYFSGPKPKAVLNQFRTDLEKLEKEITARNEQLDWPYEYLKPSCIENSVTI

Target: Polyunsaturated fatty acid lipoxygenase ALOX12 (Homo sapiens) (UniProt P18054)
Assay: Primary qHTS assay for inhibitors of human arachidonate 12S-lipoxygenase (ALOX12): Round 2
Details: purified 12hLO, xylenol orange hydroperoxide absorbance; activity change, negative = inhibition: at 108 µM (top of the series) unless noted
In short: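 Hydroperoxide product was detected by ferrous iron/xylenol orange as the 573 to 405 nm absorbance ratio. Arachidonic acid at 40 uM (final) was turned over for 30 min at room temperature by 150 nM human 12hLO, pH 7.0 Hepes buffer, after 15 min compound preincubation.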
On the % scale 0 is the no-effect control and ±100 the full control effect; potency means the concentration at half of the fitted maximal effect.

Compound	Potency	activity change, negative = inhibition
CC(C(=O)NCCCn1ccnc1)(c1ccccc1)c1ccccc1	inconclusive: 39.8 µM [inhibitor, partial curve]	–
c1cncc(-c2nc(NCc3ccc4c(c3)OCO4)c3ccccc3n2)c1	–	inactive: 2.56%
Cc1ccc(OCCN2CCCC2)cc1	–	inactive: -13.6%
C/C(N)=C(/C#N)C(=O)CSc1nc2cc(Cl)ccc2c(=O)n1Cc1ccco1	inconclusive: 56.2 µM [inhibitor, partial curve, poor fit]	–
O=c1[nH]c(=O)n(-c2ccccc2F)c2c1C(C(F)(F)F)(C(F)(F)F)N=C(c1ccncc1)N2	inconclusive: 7.94 µM [inhibitor, full curve, poor fit]	–
CC(NC(=O)c1ccc2c(c1)NC(=O)CS2)c1ccc2c(c1)OCCO2 (configuration not stated)	inconclusive: 126 µM [inhibitor, single point]	–
COc1ccc(C(=O)Nc2ccc3oc(-c4cccc(Cl)c4)nc3c2)cc1	inconclusive: 39.8 µM [inhibitor, partial curve, poor fit]	–
S=C(NCCCN1CCOCC1)NN=C1c2ccccc2-c2ccccc21	active: 44.7 µM	–
CCCN1CCN(c2cc(C(=O)O)c3cc(NC(=O)C(C)C)ccc3n2)CC1	active: 11.2 µM	–
COCCn1c(C)c(C(=O)O)sc1=S	inconclusive: 50.1 µM [inhibitor, single point]	–
COCCN1CCOc2nc(-c3cccc(OC(F)(F)F)c3)ncc2C1=O	–	inactive: 38.7% [at 176 µM]
O=C(Nc1ccccc1)c1ccc(Nc2c([N+](=O)[O-])cc([N+](=O)[O-])c3ccccc23)cc1	–	inactive: -10.5%
CC(CCN1CCN(c2ccc(F)cc2)CC1)c1ccccc1 (configuration not stated)	inconclusive: 39.8 µM [inhibitor, partial curve]	–
Cn1cc([N+](=O)[O-])c(C(=O)NCC(=O)O)n1	inconclusive: 44.7 µM [inhibitor, partial curve, poor fit]	–
COc1ccc(NC(=O)c2cc(-c3ccco3)nc3ccccc23)cc1	inconclusive: 44.7 µM [inhibitor, partial curve, poor fit] and inconclusive: 112 µM [inhibitor, single point]	–
O=S(=O)(NCc1csc(-c2cccs2)n1)c1cccs1	inconclusive: 2 µM [inhibitor, full curve, poor fit]	–
CC(C)OCCCNC(=S)Nc1ccc(S(N)(=O)=O)cc1	inconclusive: 89.1 µM [inhibitor, partial curve, poor fit]	–
COc1ccc(C(=O)c2c(C)oc3cc([N+](=O)[O-])c(O)c([N+](=O)[O-])c23)cc1	inconclusive: 12.6 µM [inhibitor, full curve]	–
O=C(Cn1nc2n(c1=O)CCN(Cc1cccc(Cl)c1)C2=O)NCCC1=CCCCC1	–	inactive: 10.2%
Cc1ccc(C)c(OCC(=O)Nc2ccccc2N2CCCC2)c1	–	inactive: -3.13%
Cc1cccc(NC(=O)c2cc(-c3ccccn3)nc3ccccc23)c1C	–	inactive: -9.23%
Cc1c(C(=O)Nc2ccc(S(=O)(=O)N(C)C3CCN(C)CC3)cc2)oc2ccccc12	inconclusive: 35.5 µM [inhibitor, partial curve, poor fit]	–
CS(=O)(=O)N(C1CCOCC1)C1CN(C(=O)CCc2c[nH]c3ccccc23)C1	–	inactive: 18.7%

Structures listed so far that contain a Cl atom (3):
Compound	Potency	activity change, negative = inhibition
C/C(N)=C(/C#N)C(=O)CSc1nc2cc(Cl)ccc2c(=O)n1Cc1ccco1	inconclusive: 56.2 µM [inhibitor, partial curve, poor fit]	–
COc1ccc(C(=O)Nc2ccc3oc(-c4cccc(Cl)c4)nc3c2)cc1	inconclusive: 39.8 µM [inhibitor, partial curve, poor fit]	–
O=C(Cn1nc2n(c1=O)CCN(Cc1cccc(Cl)c1)C2=O)NCCC1=CCCCC1	–	inactive: 10.2%

Quoted at random: 2 records from the list
Compound	Potency	activity change, negative = inhibition
Cn1cc([N+](=O)[O-])c(C(=O)NCC(=O)O)n1	inconclusive: 44.7 µM [inhibitor, partial curve, poor fit]	–
CC(CCN1CCN(c2ccc(F)cc2)CC1)c1ccccc1 (configuration not stated)	inconclusive: 39.8 µM [inhibitor, partial curve]	–

Next entries:

Compound	Potency	activity change, negative = inhibition
COc1ncc2nc(-c3ccccc3)c(=O)n(CCC#N)c2n1	inconclusive: 25.1 µM [inhibitor, single point]	–
Cc1cc(C)cc(NC(=O)COCc2cc(-c3ccc4c(c3)OCO4)on2)c1	inconclusive: 100 µM [inhibitor, partial curve, poor fit]	–
CC(=O)NCCc1c(C)n(Cc2ccccc2)c2ccccc12	inconclusive: 22.4 µM [inhibitor, single point]	–
O=S(=O)(c1cccc(Br)c1)N1CCN(CCc2ccccc2)CC1	inconclusive: 126 µM [inhibitor, partial curve, poor fit]	–
CCN(CCS(=O)(=O)c1ccc(Cl)cc1)C(=O)Nc1ccc(Cl)cc1	inconclusive: 112 µM [inhibitor, partial curve, poor fit]	–
CC[C@H]1CN(C(=O)C(C)(C)C)CC[C@H]1CC(=O)N(C)CC#N	–	inactive: 4.13% [at 176 µM]
COc1cccc(CN2c3ccc(Br)cc3C(=O)CS2(=O)=O)c1	inconclusive: 35.5 µM [inhibitor, partial curve]	–
COc1cccc(NC(=O)C(NCCC(C)C)c2ccccc2)c1 (configuration not stated)	inconclusive: 14.1 µM [inhibitor, full curve, poor fit]	–
CC1CCCCN1C(=O)CSc1c2c(nc3cc(Cl)ccc13)CCCC2 (configuration not stated)	–	inactive: -14%
COC(=O)C1=C(C)N(C)C(=NCc2ccc3c(c2)OCO3)NC1c1cccc(F)c1 (configuration not stated)	inconclusive: 44.7 µM [inhibitor, partial curve, poor fit]	–
CCOc1cc(C2C(C#N)=C(N)Oc3n[nH]c(-c4ccccc4)c32)ccc1O (configuration not stated)	inactive and inconclusive: 794 nM [inhibitor, full curve, poor fit]	–
O=C(NCCCNC(=O)C1CCCCC1)C1CCCCC1	–	inactive: 3.31%
O=C1NC[C@H](Cc2ccc(O)cc2)N(C[C@@H]2CCCN2C[C@H](Cc2ccccc2)N2C[C@H](Cc3ccc(O)cc3)N(CC3CCCCCC3)C(=O)C2=O)C1=O	active: 25.1 µM	–
COc1ccc(-c2c(-c3ccc(O)cc3O)n[nH]c2C(F)(F)F)cc1	inconclusive: 44.7 µM [inhibitor, partial curve, poor fit]	–
COc1ccc(NC(=O)C(Sc2nnc(-c3ccco3)n2N)c2ccccc2)cc1Cl (configuration not stated)	inconclusive: 44.7 µM [inhibitor, partial curve, poor fit]	–
O=C(c1ccc2nc[nH]c2c1)N1CCC(c2nc(-c3ccccc3)no2)C1 (configuration not stated)	–	inactive: 21.6%
COc1ccc(-c2cc(-c3cccc(C(N)=O)c3)cn3cncc23)cc1	inconclusive: 31.6 µM [inhibitor, full curve]	–
Cn1cc(CN2Cc3c(cc(N4CCOCC4)nc3-c3ccc(CO)cc3)C2=O)cn1	inconclusive: 79.4 µM [inhibitor, partial curve]	–
COc1ccc(-c2nc3ccc(Cl)cn3c2Nc2ccc(C)cc2)cc1	inconclusive: 1 µM [inhibitor, full curve, poor fit]	–
COC(=O)c1ccc(C2Nc3cccc4cccc(c34)N2)cc1	inconclusive: 31.6 µM [inhibitor, single point]	–
CCOC(=O)c1oc2ccccc2c1COC(=O)C(C)NC(=O)c1ccco1 (configuration not stated)	inconclusive: 35.5 µM [inhibitor, single point]	–
CN1CC(=O)N(c2ccc(Cl)cc2)Cc2c1ncnc2N1CCC(Cc2ccccc2)CC1	inconclusive: 56.2 µM [inhibitor, single point]	–
COc1cc(C2CC(=O)NC(SCc3ccccc3)=C2C#N)ccc1O (configuration not stated)	inconclusive: 70.8 µM [inhibitor, single point]	–

Compound	Potency	activity change, negative = inhibition
O=C(Cn1nc(C(=O)O)c2ccccc2c1=O)NCc1cccc(Cl)c1	inconclusive: 31.6 µM [inhibitor, partial curve, poor fit]	–
CCOC(=O)c1csc(N)n1	–	inactive: -14.4%
COc1ccc(C(=O)/C=C/c2ccc(C)cc2)c(O)c1	inconclusive: 35.5 µM [inhibitor, partial curve, poor fit]	–
CNC(NC(=O)c1ccc(C)cc1)C(Cl)(Cl)Cl (configuration not stated)	–	inactive: 3.19%
O=C(c1ccc(F)cc1)N1C[C@@H]2C[C@H](C1)c1ccc(NS(=O)(=O)c3cccc(F)c3)c(=O)n1C2	inconclusive: 25.1 µM [inhibitor, partial curve]	–
O=C(Cn1nc(-c2ccccc2)c2ccccc2c1=O)N1CCC(Cc2ccccc2)CC1	–	inconclusive: -40.6% [inhibitor]
Cc1cc(NC(=S)N(Cc2ccc(Cl)cc2)Cc2ccc(C(=O)O)cc2)ccc1Cl	active: 39.8 µM	–
Cc1oc(-c2ccccc2)nc1CC(=O)N1CCNC(=O)C1	–	inactive: -11.5%
Cn1c(=O)c2c(ncn2Cc2ccc(F)cc2Cl)n(C)c1=O	–	inactive: -16.1%
COc1ccc(NCc2nnc(SCC(=O)c3ccc(OC)cc3)n2C)cc1	inconclusive: 50.1 µM [inhibitor, single point]	–
O=C(Nc1ccc(Br)cc1)c1cc(-c2cccnc2)nc2ccccc12	–	inactive: -26.1%
Cc1ccc(S(=O)(=O)N(C)[C@H]2C[C@H]3c4[nH]c5c(-c6ccccc6)cccc5c4CCN3C(=O)[C@H]2[C@H](C)O)cc1	inconclusive: 141 µM [inhibitor, partial curve, poor fit]	–
O=C(c1ccccc1)N1N=C(c2ccccc2)CC1c1ccccc1O (configuration not stated)	–	inactive: -12.6%
COc1cccc(-c2nc(NC3CCNCC3)c3ccccc3n2)c1	inconclusive: 89.1 µM [inhibitor, partial curve, poor fit]	–
CCOCCCn1c(=NC(C)=O)c(C#N)cc2c(=O)n3ccccc3nc21	inconclusive: 112 µM [inhibitor, single point]	–
NC(=O)c1ccc[n+](CCC[n+]2cccc(C(N)=O)c2)c1	–	inactive: -1.2%
Cc1ccc(NC=C(S(=O)(=O)c2ccccc2)S(=O)(=O)c2ccccc2)c(C)c1	–	inactive: 500%
O=C(Cn1nc(-c2ccccc2)c2cnc3ccc(F)cc3c21)NC1CCCC1	–	inactive: -18.8%
CCC(C)NC(=O)Cc1csc2nc(C)c(-c3cc(C)n(-c4ccc(C)cc4)n3)c(=O)n12 (configuration not stated)	inconclusive: 3.55 µM [inhibitor, full curve]	–
N[n+]1cccc2ccccc21	active: 17.8 µM	–
Cc1cccc(C(=O)NC(=S)N2CCN(C)CC2)c1	inconclusive: 1.41 µM [inhibitor, full curve, poor fit]	–
